Test [1] addresses T1, Cdc10-3Flag (S. cerevisiae), P25342.
T1 chain: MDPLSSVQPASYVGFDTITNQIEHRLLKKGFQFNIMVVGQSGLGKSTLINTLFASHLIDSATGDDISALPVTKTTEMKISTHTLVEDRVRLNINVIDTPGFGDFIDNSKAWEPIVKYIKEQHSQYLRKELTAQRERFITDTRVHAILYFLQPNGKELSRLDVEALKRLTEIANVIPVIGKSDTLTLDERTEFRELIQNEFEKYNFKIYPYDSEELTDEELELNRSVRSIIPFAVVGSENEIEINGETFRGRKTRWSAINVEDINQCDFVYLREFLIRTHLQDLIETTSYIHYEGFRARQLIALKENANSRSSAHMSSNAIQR
Kind of test: co-IP; anti-Flag M2 on protein G dynabeads; extracts of nocodazole-arrested yeast cells in TBSN buffer (100 mM NaCl, 25 mM Tris-Cl pH 7.4, 2 mM EDTA, 0.1% NP-40, 1 mM DTT), 1 h at 4 °C; eluted with 3xFlag peptide; blots with anti-HA, anti-Flag and anti-Cdc11. As to conditions: remark: other sources report otherwise.

Test [2] has as its target T2, Cdc10-3Flag (S. cerevisiae) (UniProt P25342).
T2 sequence: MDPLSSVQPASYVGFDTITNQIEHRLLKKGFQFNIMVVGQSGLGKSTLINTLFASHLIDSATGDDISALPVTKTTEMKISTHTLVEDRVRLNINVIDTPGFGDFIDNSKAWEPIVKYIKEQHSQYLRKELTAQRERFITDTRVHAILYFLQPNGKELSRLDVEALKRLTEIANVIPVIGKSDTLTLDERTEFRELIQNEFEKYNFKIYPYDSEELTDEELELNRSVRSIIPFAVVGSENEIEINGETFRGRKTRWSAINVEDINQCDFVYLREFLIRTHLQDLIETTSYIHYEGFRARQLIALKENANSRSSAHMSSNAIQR
Described as above.

Results are given in words; binding and its absence hold for the method and conditions named. Binding seen in cells or lysates may run through a third protein. Some results given as binding are weak or reduced against the parent protein; the word gives no strength. Sequences can lack the tags named with a protein.

B1: Cdc11, P32458 1-415 (protein)
chain: MSGIIDASSALRKRKHLKRGITFTVMIVGQSGSGRSTFINTLCGQQVVDTSTTILLPTDTSTEIDLQLREETVELEDDEGVKIQLNIIDTPGFGDSLDNSPSFEIISDYIRHQYDEILLEESRVRRNPRFKDGRVHCCLYLINPTGHGLKEIDVEFIRQLGSLVNIIPVISKSDSLTRDELKLNKKLIMEDIDRWNLPIYNFPFDEDEISDEDYETNMYLRTLLPFAIIGSNEVYEMGGDVGTIRGRKYPWGILDVEDSSISDFVILRNALLISHLHDLKNYTHEILYERYRTEALSGESVAAESIRPNLTKLNGSSSSSTTTRRNTNPFKQSNNINNDVLNPASDMHGQSTGENNETYMTREEQIRLEEERLKAFEERVQQELLLKRQELLQREKELREIEARLEKEAKIKQEE
Regarding B1, the binding entry in test [1] is reported as “binds”.

B2: Hof1-P1E-3HA (protein, UniProt Q05080 1-669)
chain: MSYSYEACFWDPNDNGVNILLGHISQGIRSCDSMILFFKQRSELEKDYARRLGAITGKLDKDIGTNMDYGKLNETFNVVLSVEKARAQSHSKQSEILFRQIYTDTKAFAANLQARYTTLSGKIERLRMDKFNKKKGCEVLQKKLQDAQIRFRDLQLNENNMIGAKRVEHNKRELLKWESNSQEYKVQLDVLKQEYKASQKFWIHEWAQLSCELQEMENARISFLQSKLQQFATSSMETYILEQTKMDMLTNHLNSFTAADEISTFSKENGTGRLKHKTSKGDMNSSANWAQMSSISTTSKKTESYMDNIRKLEEQLKETENKRKLASIDKYEKPLPEPEVEMATQFRNSEPVIRNETKVVANPTLELREEPVQLQSNVDDSVLRQKPDKPRPIVGEEQLKPDEDSKNPDEKGLMVHKRNQELEEPSESSSSNPTDFSHIKKRQSMESMTTSVSSMANSIDDSQRFAKSWNSSNRKRKEMSHLQVPSSASSRSDDGGRTPNSAHNLNEDDYNTRRDTSTSTILFKPPVAVRGTSRGHTHRQSMIMQDSSNPIEDALYEMERIQESSKPGTKTGNIMDERGVVRDRGITVTLPIVTSEGFPVIEYAKAMYPLIGNEAPGLANFHKGDYLLITEIVNKDWYKGEVYDNDRIDRNHRIGLIPYNFIQLLHQGL
As for B2, in test [2], the binding result is listed as “binds”.

B3: MBP-Hof1-BFP-6His (natural protein, S. cerevisiae, UniProt Q05080 1-669, looked up)
chain: MSYSYEACFWDPNDNGVNILLGHISQGIRSCDSMILFFKQRSELEKDYARRLGAITGKLDKDIGTNMDYGKLNETFNVVLSVEKARAQSHSKQSEILFRQIYTDTKAFAANLQARYTTLSGKIERLRMDKFNKKKGCEVLQKKLQDAQIRFRDLQLNENNMIGAKRVEHNKRELLKWESNSQEYKVQLDVLKQEYKASQKFWIHEWAQLSCELQEMENARISFLQSKLQQFATSSMETYILEQTKMDMLTNHLNSFTAADEISTFSKENGTGRLKHKTSKGDMNSSANWAQMSSISTTSKKTESYMDNIRKLSSQLKETENKRKLASIDKYEKPLPSPEVTMATQFRNSTPVIRNETKVVANPTLSLRSSPVQLQSNVDDSVLRQKPDKPRPIVGEEQLKPDEDSKNPDEKGLMVHKRNQSLSSPSESSSSNPTDFSHIKKRQSMESMTTSVSSMANSIDDSQRFAKSWNSSNRKRKSMSHLQVPSSASSRSDDGGRTPNSAHNLNEDDYNTRRDTSTSTILFKPPVAVRGTSRGHTHRQSMIMQDSSNPIEDALYEMERIQSSSKPGTKTGNIMDERGVVRDRGITVTLPIVTSEGFPVIEYAKAMYPLIGNEAPGLANFHKGDYLLITEIVNKDWYKGEVYDNDRIDRNHRIGLIPYNFIQLLHQGL
notes: F-BAR protein Hof1, S. cerevisiae, residues 1-669 (mTagBFP fragment cloned into pBG2163); BFP amplified from pHPOM1-mTagBFP2; also called Hof1 tagged with blue fluorescent protein; pSP1950; source: E. coli BL21 (DE3) Rosetta, purified (Ni-NTA, amylose); not shown: MBP, N-terminal, kept; mTagBFP, C-terminal, kept
Turning to B3, the binding result in test [2] is recorded as “binds”.

B4: Hof1-P4E-3HA (protein, UniProt Q05080 1-669)
chain: MSYSYEACFWDPNDNGVNILLGHISQGIRSCDSMILFFKQRSELEKDYARRLGAITGKLDKDIGTNMDYGKLNETFNVVLSVEKARAQSHSKQSEILFRQIYTDTKAFAANLQARYTTLSGKIERLRMDKFNKKKGCEVLQKKLQDAQIRFRDLQLNENNMIGAKRVEHNKRELLKWESNSQEYKVQLDVLKQEYKASQKFWIHEWAQLSCELQEMENARISFLQSKLQQFATSSMETYILEQTKMDMLTNHLNSFTAADEISTFSKENGTGRLKHKTSKGDMNSSANWAQMSSISTTSKKTESYMDNIRKLEEQLKETENKRKLASIDKYEKPLPEPEVEMATQFRNSEPVIRNETKVVANPTLELRSSPVQLQSNVDDSVLRQKPDKPRPIVGEEQLKPDEDSKNPDEKGLMVHKRNQELEEPSESSSSNPTDFSHIKKRQSMESMTTSVSSMANSIDDSQRFAKSWNSSNRKRKSMSHLQVPSSASSRSDDGGRTPNSAHNLNEDDYNTRRDTSTSTILFKPPVAVRGTSRGHTHRQSMIMQDSSNPIEDALYEMERIQESSKPGTKTGNIMDERGVVRDRGITVTLPIVTSEGFPVIEYAKAMYPLIGNEAPGLANFHKGDYLLITEIVNKDWYKGEVYDNDRIDRNHRIGLIPYNFIQLLHQGL
B4: the binding result in test [2] is “binds”.

B5: Hof1-P4A-3HA (protein, UniProt Q05080 1-669)
chain: MSYSYEACFWDPNDNGVNILLGHISQGIRSCDSMILFFKQRSELEKDYARRLGAITGKLDKDIGTNMDYGKLNETFNVVLSVEKARAQSHSKQSEILFRQIYTDTKAFAANLQARYTTLSGKIERLRMDKFNKKKGCEVLQKKLQDAQIRFRDLQLNENNMIGAKRVEHNKRELLKWESNSQEYKVQLDVLKQEYKASQKFWIHEWAQLSCELQEMENARISFLQSKLQQFATSSMETYILEQTKMDMLTNHLNSFTAADEISTFSKENGTGRLKHKTSKGDMNSSANWAQMSSISTTSKKTESYMDNIRKLAAQLKETENKRKLASIDKYEKPLPAPEVAMATQFRNSAPVIRNETKVVANPTLALRSSPVQLQSNVDDSVLRQKPDKPRPIVGEEQLKPDEDSKNPDEKGLMVHKRNQALAAPSESSSSNPTDFSHIKKRQSMESMTTSVSSMANSIDDSQRFAKSWNSSNRKRKSMSHLQVPSSASSRSDDGGRTPNSAHNLNEDDYNTRRDTSTSTILFKPPVAVRGTSRGHTHRQSMIMQDSSNPIEDALYEMERIQASSKPGTKTGNIMDERGVVRDRGITVTLPIVTSEGFPVIEYAKAMYPLIGNEAPGLANFHKGDYLLITEIVNKDWYKGEVYDNDRIDRNHRIGLIPYNFIQLLHQGL
Turning to B5, the binding entry in test [2] is “binds”.

B6: Hof1-P1A-3HA (protein, UniProt Q05080 1-669)
chain: MSYSYEACFWDPNDNGVNILLGHISQGIRSCDSMILFFKQRSELEKDYARRLGAITGKLDKDIGTNMDYGKLNETFNVVLSVEKARAQSHSKQSEILFRQIYTDTKAFAANLQARYTTLSGKIERLRMDKFNKKKGCEVLQKKLQDAQIRFRDLQLNENNMIGAKRVEHNKRELLKWESNSQEYKVQLDVLKQEYKASQKFWIHEWAQLSCELQEMENARISFLQSKLQQFATSSMETYILEQTKMDMLTNHLNSFTAADEISTFSKENGTGRLKHKTSKGDMNSSANWAQMSSISTTSKKTESYMDNIRKLAAQLKETENKRKLASIDKYEKPLPAPEVAMATQFRNSAPVIRNETKVVANPTLALRAAPVQLQSNVDDSVLRQKPDKPRPIVGEEQLKPDEDSKNPDEKGLMVHKRNQALAAPSESSSSNPTDFSHIKKRQSMESMTTSVSSMANSIDDSQRFAKSWNSSNRKRKAMSHLQVPSSASSRSDDGGRTPNSAHNLNEDDYNTRRDTSTSTILFKPPVAVRGTSRGHTHRQSMIMQDSSNPIEDALYEMERIQASSKPGTKTGNIMDERGVVRDRGITVTLPIVTSEGFPVIEYAKAMYPLIGNEAPGLANFHKGDYLLITEIVNKDWYKGEVYDNDRIDRNHRIGLIPYNFIQLLHQGL
Consider B6, for which, in test [2], the binding result is reported as “binds”.

The values above are taken from paper PMC11035697, “Phosphorylation of the F-BAR protein Hof1 drives septin ring splitting in budding yeast” (Nature Communications, 2024).
